Values quoted from earlier work, collected in paper PMC11597746 (Pharmaceutics, 2024).

Conditions: patients taking lorlatinib compared to controls; cited from earlier work

CC(C)(C(=O)O)c1ccc(C(O)CCCN2CCC(C(O)(c3ccccc3)c3ccccc3)CC2)cc1 (centres unmarked) [fexofenadine]
decrease in AUC0–∞: 67% | decrease in Cmax: 63%
